According to PMC12351941:
These are yes or no findings as the source states them, for the method shown. In cells and extracts the contact can be indirect. Some entries that bind do so weakly or less than the wild type.

Target: T1, Murine double minute 4 (MDM4) (rat (endogenous in H9C2)) (UniProt Q5XIN1)
T1 sequence: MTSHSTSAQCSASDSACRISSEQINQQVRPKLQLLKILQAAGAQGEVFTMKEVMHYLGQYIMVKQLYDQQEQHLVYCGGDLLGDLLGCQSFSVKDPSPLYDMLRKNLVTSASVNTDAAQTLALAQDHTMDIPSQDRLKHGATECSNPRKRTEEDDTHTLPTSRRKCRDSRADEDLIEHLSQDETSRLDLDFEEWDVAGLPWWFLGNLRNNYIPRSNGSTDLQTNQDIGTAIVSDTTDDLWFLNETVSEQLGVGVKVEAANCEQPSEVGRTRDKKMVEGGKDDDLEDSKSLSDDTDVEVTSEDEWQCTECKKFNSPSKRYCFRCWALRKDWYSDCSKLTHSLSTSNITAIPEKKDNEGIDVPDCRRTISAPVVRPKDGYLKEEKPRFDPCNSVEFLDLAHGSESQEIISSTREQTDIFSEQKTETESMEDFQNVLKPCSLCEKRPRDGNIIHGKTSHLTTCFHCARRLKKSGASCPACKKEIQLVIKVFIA
Experiment: co-IP; H9C2 lysates (cells with 1 uM Dox for 24 h or control medium) incubated overnight at 4 °C with Protein A magnetic beads pre-coated with anti-MDM4 antibody or IgG; immunoblot of USP8 and MDM4

B1: Ubiquitin-specific protease 8 (USP8) (enzyme, UniProt D3ZN39 1-1081)
chain: MPAVASVPKELYLSSSLKDLNKKTEVKPEKTSTKNYIHSAQKIFKAAEECRLDRDEERAYVLYMKYVAVYNLIKKRPDFKQQQDYYLSILGPANIKKAIEEAERLSESLKLRYEEAEVRKQLEEKDRREEEQLQQQKRQEMGREDSGAAAKRSVENLLDSKTKIQRVNGEKSEGGAAAERGAVTAKELYTMMMDKNTSLIIMDARKIQDYQHSCILGSLSVPEEAISPGVTANWIEAKLSDDSKDTWKKRGSVDYVVLLDWFSSAKDLLLGTTLRSLKDALFKWESKAVLHHEPLVLEGGYENWLLCYPQFTTNAKVTPPPRSRPEEVSVSLDFTYPSLEEPVPSKLPAQMPPPPLEANEKAQLVTDQDGKPRPLVQSALAGPSVAPKAEASPIIQPVPATKNVPQVDRTKKPAVKLPEDHRMKSESTDQSGRVLSDRSTKPVFTSPATMLTDEEKARIHEETALLMEKNRQEKELWERQQKEQKEKLRREEQERKAGKTQDAEERDFTENQHKAKDGQEKRDSKQTKAEDREPPADGAQDATGTQRQSKSEHDASDAKVSVEGKRCPMSEVQKRPADVSSASSMSGELSAGKAQREPLTRARSEEMGRIVPGLPLGWAKFLDPITGTFRYYHSPTNTVHMYPPEMAPSSVPPSTPPTHKVKPQIPAERDREPSKLKRSYSSPDITQALQEEEKRRPAVTPTVNRENKPPCYPKAEISRLSASQIRNLNPVFGGSGPALTGLRNLGNTCYMNSILQCLCNAPHLADYFNRNCYQDDINRSNLLGHKGEVAEEFGIIMKALWTGQYRYISPKDFKVTIGKINDQFAGSSQQDSQELLLFLMDGLHEDLNKADNRKRHKEENNDHLDDFKAAEHAWQKHKQLNESIIVALFQGQFKSTVQCLTCHKKSRTFEAFMYLSLPLASTSKCTLQDCLRLFSKEEKLTDNNRFYCSHCRARRDSLKKIEIWKLPPVLLVHLKRFSYDGRWKQKLQTSVDFPLENLDLSQYVIGPKSSLKKYNLFSVSNHYGGLDGGHYTAYCKNAARQRWFKFDDHEVSDISVSSVRSSAAYILFYTSLGPRVTEAAT
**Q.** For B1, which binding is on record?
**A.** binds
